From patent publication US20110059910A1, “Novel aromatic fluoroglycoside derivatives, pharmaceuticals comprising said compounds and the use thereof” (SANOFI-AVENTIS, priority 2008, published 2011)
The structures given here were assigned with low confidence; some may be wrong.

Amino acid sequences for entries named in this document (tags omitted).
UniProt P31639, whole entry: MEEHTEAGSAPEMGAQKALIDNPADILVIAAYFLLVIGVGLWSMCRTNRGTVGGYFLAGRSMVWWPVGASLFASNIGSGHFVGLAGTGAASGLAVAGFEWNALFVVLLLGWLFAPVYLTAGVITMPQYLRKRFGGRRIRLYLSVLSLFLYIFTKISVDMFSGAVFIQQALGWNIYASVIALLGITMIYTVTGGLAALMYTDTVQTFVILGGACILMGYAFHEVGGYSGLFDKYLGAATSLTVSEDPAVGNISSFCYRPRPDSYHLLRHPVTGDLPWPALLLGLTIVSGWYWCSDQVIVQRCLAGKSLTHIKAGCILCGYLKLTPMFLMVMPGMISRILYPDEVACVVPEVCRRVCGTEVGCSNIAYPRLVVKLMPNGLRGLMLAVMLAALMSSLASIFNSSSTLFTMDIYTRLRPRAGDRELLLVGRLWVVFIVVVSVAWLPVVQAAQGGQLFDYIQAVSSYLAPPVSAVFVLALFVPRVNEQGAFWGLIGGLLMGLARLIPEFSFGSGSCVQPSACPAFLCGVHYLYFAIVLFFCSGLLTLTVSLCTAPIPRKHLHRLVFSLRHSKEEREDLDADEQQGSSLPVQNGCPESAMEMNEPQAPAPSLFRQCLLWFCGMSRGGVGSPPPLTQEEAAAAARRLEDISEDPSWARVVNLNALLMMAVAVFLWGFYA

Biological target: human sodium-dependent glucose transporter 2 (SGLT2, SLC5A2) (Homo sapiens, UniProt P31639)
Test: Inhibition of the transport activity of human SGLT2 in vitro (α-MDG uptake in CHO-TRex-hSGLT2 cells)
Conditions: read-out: IC50 SGLT2, 50 μM α-MDG, 120 min at 37° C.
Text: Inhibition of the Transport Activity of the Human Sodium-Dependent Glucose Transporter 2 (SGLT2, SLC5A2) In Vitro
1. Cloning of an Expression Vector for Human SGLT2
The cDNA for human SGLT2 was introduced into the pcDNA4/TO vector (Invitrogen) by means of standard methods of molecular biology as described in Sambrook et al. (Molecular Cloning, A Laboratory Manual, Second Edition). […] Bases 21 to 2039 correspond to the complete coding region of human SGLT2.
2. Production of a Recombinant Cell Line with Inducible Expression of Human SGLT2
The expression vector for human SGLT2 was introduced into CHO-TREx cells (Invitrogen) by means of FuGene6 lipofection (Roche). […]
CHO-TRex-hSGLT2 cells were seeded in cell culture medium in a concentration of 50 000 cells per well in Cytostar-T scintillating 96-well plates (Amersham Biosciences) and cultivated for 24 h. […] After an incubation time of 120 min at 37° C., the reaction was stopped by adding 50 μl/well of 10 mM methyl-α-D-glucopyranoside in transport assay buffer (4° C.), and the radioactivity taken up into the cells was determined in a MicroBeta Scintillation Microplate Reader (Wallac).
The half-maximum inhibiting action of the test substances (IC50 value) was determined as follows: • 1. […] This is the measurement in the absence of substance, measured in sodium-containing transport assay buffer. • 2. […]

## CCOC(=O)OC[C@H]1O[C@@H](c2ccc(Cl)c(Cc3ccc(Cl)cc3)c2)[C@H](O)[C@@H](O)[C@@H]1F
  IC50: 3.5 µM
